Test results reported in patent publication US20240034752A1 (priority 2021, published 2024).
End groups of sequences in plain letters are not given here.

Experiment: peptide made by a vendor (Fmoc solid-phase peptide synthesis)
Conditions: whole synthesis, 210 nm

In the case of RRRQRRKKRGSGVRRRRLSNVSL, the “final HPLC purity” value is reported as 98.3%.
